PubChem BioAssay AID1508597 | Cure First, 2020
Screen: 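Knock-downs altering ovarian cancer cell survival with or without PARP inhibitor rucaparib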 (primary screen). Cell system: human ovarian carcinoma lines grown from tumours: OCI-P5x (papillary serous) and OCI-C5x (clear cell). Reagent: siRNA pool against human genes, 1.25 pmol siRNA per well. Time to read-out: 72 h or 96 h, depending on the cell culture. Conditions: rucaparib 20 µM (about IC30) or vehicle, present until read-out. Measurement: 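ATP luminescence measured at 72 or 96 h according to the culture, then normalised and expressed as percent viability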. Scale: viability, normalised: higher = more viable cells remaining. Active means: 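Active when normalised viability falls below 80 percent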. Meaning of the calls: active = viability under 80%; inactive = viability 80% or more.
Here is one part, drawn at random, of about 2,100 deposited reagents. 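Calls flag viability under 80% in either arm, not effects specific to rucaparib; the reference for percent is not stated.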 A reagent listed more than once was tested more than once; the source does not tell the runs apart. Not stated in the record: the 100% reference.

| Target gene | rucaparib or vehicle | cell line | technical replicate | viability, normalised (%) | call |
| --- | --- | --- | --- | --- | --- |
| CHRAC1 (chromatin accessibility complex subunit 1) | Rucaparib | OCI-C5x (clear cell) | 1 | 68.5 | active |
| CHRAC1 (chromatin accessibility complex subunit 1) | Rucaparib | OCI-C5x (clear cell) | 2 | 62.4 | active |
| CHRAC1 (chromatin accessibility complex subunit 1) | Rucaparib | OCI-C5x (clear cell) | 3 | 62 | active |
| CHRAC1 (chromatin accessibility complex subunit 1) | Rucaparib | OCI-P5x (serous) | 1 | 76.9 | active |
| CHRAC1 (chromatin accessibility complex subunit 1) | Rucaparib | OCI-P5x (serous) | 2 | 84.1 | inactive |
| CHRAC1 (chromatin accessibility complex subunit 1) | Rucaparib | OCI-P5x (serous) | 3 | 71.4 | active |
| CHRAC1 (chromatin accessibility complex subunit 1) | Vehicle | OCI-C5x (clear cell) | 1 | 41.7 | active |
| CHRAC1 (chromatin accessibility complex subunit 1) | Vehicle | OCI-C5x (clear cell) | 2 | 53.6 | active |
| CHRAC1 (chromatin accessibility complex subunit 1) | Vehicle | OCI-C5x (clear cell) | 3 | 57.2 | active |
| CHRAC1 (chromatin accessibility complex subunit 1) | Vehicle | OCI-P5x (serous) | 1 | 81.9 | inactive |
| CHRAC1 (chromatin accessibility complex subunit 1) | Vehicle | OCI-P5x (serous) | 2 | 85.9 | inactive |
| CHRAC1 (chromatin accessibility complex subunit 1) | Vehicle | OCI-P5x (serous) | 3 | 95.6 | inactive |
| EPHA2 (EPH receptor A2) | Rucaparib | OCI-C5x (clear cell) | 1 | 43.3 | active |
| EPHA2 (EPH receptor A2) | Rucaparib | OCI-C5x (clear cell) | 2 | 50.1 | active |
| EPHA2 (EPH receptor A2) | Rucaparib | OCI-C5x (clear cell) | 3 | 43.4 | active |
| EPHA2 (EPH receptor A2) | Rucaparib | OCI-P5x (serous) | 1 | 63.7 | active |
| EPHA2 (EPH receptor A2) | Rucaparib | OCI-P5x (serous) | 2 | 68.1 | active |
| EPHA2 (EPH receptor A2) | Rucaparib | OCI-P5x (serous) | 3 | 59.8 | active |
| EPHA2 (EPH receptor A2) | Vehicle | OCI-C5x (clear cell) | 1 | 37 | active |
| EPHA2 (EPH receptor A2) | Vehicle | OCI-C5x (clear cell) | 2 | 50.6 | active |
| EPHA2 (EPH receptor A2) | Vehicle | OCI-C5x (clear cell) | 3 | 50.4 | active |
| EPHA2 (EPH receptor A2) | Vehicle | OCI-P5x (serous) | 1 | 64.5 | active |
| EPHA2 (EPH receptor A2) | Vehicle | OCI-P5x (serous) | 2 | 49.8 | active |
| EPHA2 (EPH receptor A2) | Vehicle | OCI-P5x (serous) | 3 | 65.3 | active |
| MAP2K7 (mitogen-activated protein kinase kinase 7) | Rucaparib | OCI-C5x (clear cell) | 1 | 52.5 | active |
| MAP2K7 (mitogen-activated protein kinase kinase 7) | Rucaparib | OCI-C5x (clear cell) | 1 | 43.6 | active |
| MAP2K7 (mitogen-activated protein kinase kinase 7) | Rucaparib | OCI-C5x (clear cell) | 2 | 57.7 | active |
| MAP2K7 (mitogen-activated protein kinase kinase 7) | Rucaparib | OCI-C5x (clear cell) | 2 | 53.5 | active |
| MAP2K7 (mitogen-activated protein kinase kinase 7) | Rucaparib | OCI-C5x (clear cell) | 3 | 48.1 | active |
| MAP2K7 (mitogen-activated protein kinase kinase 7) | Rucaparib | OCI-C5x (clear cell) | 3 | 58.3 | active |
| MAP2K7 (mitogen-activated protein kinase kinase 7) | Rucaparib | OCI-P5x (serous) | 1 | 58.1 | active |
| MAP2K7 (mitogen-activated protein kinase kinase 7) | Rucaparib | OCI-P5x (serous) | 1 | 74.8 | active |
| MAP2K7 (mitogen-activated protein kinase kinase 7) | Rucaparib | OCI-P5x (serous) | 2 | 63.4 | active |
| MAP2K7 (mitogen-activated protein kinase kinase 7) | Rucaparib | OCI-P5x (serous) | 2 | 49.3 | active |
| MAP2K7 (mitogen-activated protein kinase kinase 7) | Rucaparib | OCI-P5x (serous) | 3 | 58.5 | active |
| MAP2K7 (mitogen-activated protein kinase kinase 7) | Rucaparib | OCI-P5x (serous) | 3 | 65.1 | active |
| MAP2K7 (mitogen-activated protein kinase kinase 7) | Vehicle | OCI-C5x (clear cell) | 1 | 53.6 | active |
| MAP2K7 (mitogen-activated protein kinase kinase 7) | Vehicle | OCI-C5x (clear cell) | 1 | 53.8 | active |
| MAP2K7 (mitogen-activated protein kinase kinase 7) | Vehicle | OCI-C5x (clear cell) | 2 | 58.1 | active |
| MAP2K7 (mitogen-activated protein kinase kinase 7) | Vehicle | OCI-C5x (clear cell) | 2 | 64.3 | active |
| MAP2K7 (mitogen-activated protein kinase kinase 7) | Vehicle | OCI-C5x (clear cell) | 3 | 47.3 | active |
| MAP2K7 (mitogen-activated protein kinase kinase 7) | Vehicle | OCI-C5x (clear cell) | 3 | 58.9 | active |
| MAP2K7 (mitogen-activated protein kinase kinase 7) | Vehicle | OCI-P5x (serous) | 1 | 75.3 | active |
| MAP2K7 (mitogen-activated protein kinase kinase 7) | Vehicle | OCI-P5x (serous) | 1 | 68.2 | active |
| MAP2K7 (mitogen-activated protein kinase kinase 7) | Vehicle | OCI-P5x (serous) | 2 | 58.4 | active |
| MAP2K7 (mitogen-activated protein kinase kinase 7) | Vehicle | OCI-P5x (serous) | 2 | 80.7 | inactive |
| MAP2K7 (mitogen-activated protein kinase kinase 7) | Vehicle | OCI-P5x (serous) | 3 | 39.8 | active |
| MAP2K7 (mitogen-activated protein kinase kinase 7) | Vehicle | OCI-P5x (serous) | 3 | 80.7 | inactive |
| TAF7 (TATA-box binding protein associated factor 7) | Rucaparib | OCI-C5x (clear cell) | 1 | 57.1 | active |
| TAF7 (TATA-box binding protein associated factor 7) | Rucaparib | OCI-C5x (clear cell) | 2 | 59.6 | active |
| TAF7 (TATA-box binding protein associated factor 7) | Rucaparib | OCI-C5x (clear cell) | 3 | 45.9 | active |
| TAF7 (TATA-box binding protein associated factor 7) | Rucaparib | OCI-P5x (serous) | 1 | 48 | active |
| TAF7 (TATA-box binding protein associated factor 7) | Rucaparib | OCI-P5x (serous) | 2 | 40.1 | active |
| TAF7 (TATA-box binding protein associated factor 7) | Rucaparib | OCI-P5x (serous) | 3 | 53.9 | active |
| TAF7 (TATA-box binding protein associated factor 7) | Vehicle | OCI-C5x (clear cell) | 1 | 65.3 | active |
| TAF7 (TATA-box binding protein associated factor 7) | Vehicle | OCI-C5x (clear cell) | 2 | 49.5 | active |
| TAF7 (TATA-box binding protein associated factor 7) | Vehicle | OCI-C5x (clear cell) | 3 | 43.3 | active |
| TAF7 (TATA-box binding protein associated factor 7) | Vehicle | OCI-P5x (serous) | 1 | 63.2 | active |
| TAF7 (TATA-box binding protein associated factor 7) | Vehicle | OCI-P5x (serous) | 2 | 71.9 | active |
| TAF7 (TATA-box binding protein associated factor 7) | Vehicle | OCI-P5x (serous) | 3 | 85.9 | inactive |
